Primary screen of a compound library

The chains behind the UniProt entries cited, without tags or fusion partners. Residues count along the entry.
UniProt P9WFT3, whole entry: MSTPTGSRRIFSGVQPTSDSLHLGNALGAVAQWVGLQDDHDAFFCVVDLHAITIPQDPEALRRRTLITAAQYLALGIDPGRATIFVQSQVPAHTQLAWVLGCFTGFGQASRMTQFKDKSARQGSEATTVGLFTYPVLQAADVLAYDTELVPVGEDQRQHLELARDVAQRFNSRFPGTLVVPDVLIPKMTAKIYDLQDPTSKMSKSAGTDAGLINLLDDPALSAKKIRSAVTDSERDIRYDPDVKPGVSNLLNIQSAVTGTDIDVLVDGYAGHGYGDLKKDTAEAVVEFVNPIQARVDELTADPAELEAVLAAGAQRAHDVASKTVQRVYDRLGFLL
UniProt Q8IDJ8, 1-583: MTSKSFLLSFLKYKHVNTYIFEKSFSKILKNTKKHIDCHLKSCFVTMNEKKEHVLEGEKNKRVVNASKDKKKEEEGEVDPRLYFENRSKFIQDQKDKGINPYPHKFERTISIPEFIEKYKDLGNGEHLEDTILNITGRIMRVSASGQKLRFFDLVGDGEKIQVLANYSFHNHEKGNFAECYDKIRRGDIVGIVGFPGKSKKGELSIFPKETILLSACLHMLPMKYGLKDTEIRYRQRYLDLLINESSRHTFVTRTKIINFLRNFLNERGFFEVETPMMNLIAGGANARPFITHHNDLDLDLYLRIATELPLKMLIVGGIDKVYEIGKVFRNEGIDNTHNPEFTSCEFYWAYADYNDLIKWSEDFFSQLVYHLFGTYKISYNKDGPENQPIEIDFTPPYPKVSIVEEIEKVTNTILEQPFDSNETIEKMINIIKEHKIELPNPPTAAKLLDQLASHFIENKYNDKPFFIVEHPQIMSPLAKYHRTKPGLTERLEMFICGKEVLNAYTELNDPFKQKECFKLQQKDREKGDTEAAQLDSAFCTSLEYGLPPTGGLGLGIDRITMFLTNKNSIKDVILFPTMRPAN
UniProt P9WPC5, whole entry: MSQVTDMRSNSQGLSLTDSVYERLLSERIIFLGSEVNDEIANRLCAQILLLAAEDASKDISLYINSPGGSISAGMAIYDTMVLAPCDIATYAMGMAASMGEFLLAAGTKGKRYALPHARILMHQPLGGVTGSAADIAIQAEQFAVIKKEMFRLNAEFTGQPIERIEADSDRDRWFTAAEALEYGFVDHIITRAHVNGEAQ
UniProt P9WPC3, whole entry partner: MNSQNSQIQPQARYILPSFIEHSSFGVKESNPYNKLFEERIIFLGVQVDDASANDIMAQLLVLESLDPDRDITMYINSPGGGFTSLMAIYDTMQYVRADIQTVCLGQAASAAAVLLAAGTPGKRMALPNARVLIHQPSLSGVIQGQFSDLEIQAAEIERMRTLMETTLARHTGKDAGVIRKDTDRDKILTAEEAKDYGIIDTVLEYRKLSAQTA

Source: ChEMBL document CHEMBL3988442, “University of Dundee, Small-Polar-MMV Screening Library” (2021).

MtTrpRS: 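Enzyme assay of tryptophanyl-tRNA synthetase; the read-out is not stated. Target: Tryptophan-tRNA ligase, Mycobacterium tuberculosis (UniProt P9WFT3). Compounds at 10 µM. Higher most likely means stronger inhibition; the record gives no direction and few retests gave an IC50. Size under these conditions: about 65,000 compounds, about 64 of them at 50% or above in at least one test.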
PfKRS1: 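Enzyme assay of the cytosolic lysyl-tRNA synthetase in 384-well plates, read by luminescence. Target: Lysine-tRNA ligase, Plasmodium falciparum 3D7 (UniProt Q8IDJ8). Concentration: 30 µM. Direction is inferred from only a few compounds that gave an IC50; most scored high, so higher reads as stronger inhibition. Size under these conditions: about 69,000 compounds, about 49 of them at 50% or above in at least one test.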
ClpP1P2: 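Protease assay of ClpP1P2, read by the AMC dye that it sets free. Target: ClpP1P2, Mycobacterium tuberculosis (UniProt P9WPC5 and UniProt P9WPC3). Compounds at 50 µM. Direction is inferred from only a few compounds that gave an IC50; most scored high, so higher reads as stronger inhibition. Most other retested compounds had strongly negative values. Of about 69,000 compounds tested this way, about 10 (0.015%) reached 50% or more in at least one test.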

Each number is a percent effect as filed. The record does not define 0% and 100%; most values in the screen are far below 50% and negative numbers occur (in some assays of this library far below -100). Compounds were drawn at random from those tested, without regard to their results. A dash means the value is not listed here; it may have been measured.

Compound	MtTrpRS	PfKRS1	ClpP1P2
Cc1nn2c(NC(=O)CSc3nccn3C)csc2nc1=O	-4.355%	-4.045%	-6.717%
CN(C)Cc1cc(C2CCCCN2S(=O)(=O)c2cccc(Cl)c2)nn1C (configuration not stated)	-2.108%	2.441%	-24.26%
Cc1nc(C2CCCN(C(=O)c3c[nH]c(C(C)C)n3)C2)no1 (configuration not stated)	20.9%	0.5062%	-26.76%
c1csc(-c2nc(CN3CCOC(Cn4cncn4)C3)co2)c1 (configuration not stated)	-1.33%	5.515%	17.33%
O=C(NS(=O)(=O)c1cc(Cl)ccc1Cl)c1cccc2c1OCCO2	-1.285%	2.495%	-9.078%
Cc1ncsc1CCn1ccnc1-c1cc2n(n1)CCCNC2	9.071%	-3.237%	3.565%
CC(=O)N1CCc2nc(-c3ccccc3)nc(NC(C)C)c2CC1	-	4.499%	-1%
Cc1cc(C(=O)N2CCCC2Cn2nc(C)cc2C)on1 (configuration not stated)	-1.487%	4.865%	5.757%
Cc1ccc2oc(C(=O)N3CCCC(n4nc(C)nc4C)C3)cc2n1 (configuration not stated)	15.24%	1.974%	-25.61%
CN(C(=O)CN1CCC(c2cc3ccccc3[nH]2)CC1)C(C)(C)C#N	-0.6796%	7.443%	5.843%
CC(C)(C)c1n[nH]cc1CNC1CCC(O)CC1 (configuration not stated)	5.356%	-1.032%	-7.081%
CCS(=O)(=O)c1ccccc1N1CCC(NC2CCCC2)CC1	-3.955%	1.74%	8.778%
CSCc1nc(CNC(=O)C2CCCN(CC(N)=O)C2)cs1 (configuration not stated)	2.528%	-3.133%	-1.789%
O=C(O)c1nnn(-c2ccc(OC(F)(F)F)cc2)c1-c1ccncc1	0.9534%	3.471%	0.0212%
Cc1noc([C@H]2C[C@H]3OCC[C@H]3N(S(=O)(=O)C3CC3)C2)n1	-3.536%	5.294%	2.28%
CCO[C@H]1COC[C@@H]1NC(=O)CCc1nc(-c2ccccc2)no1	-1.254%	4.154%	-19.28%
CCn1nc(C)c(CCN2CC3(CCOC3)CCC2=O)c1C (configuration not stated)	0.7389%	-3.847%	6.954%
CCNC(=O)[C@@H]1C[C@H](n2cc(CC3CCCCC3)nn2)CN1	-2.021%	9.409%	10.75%
O=C1CCC[C@]2(CN(S(=O)(=O)N3CCOCC3)C[C@H]2c2cccnc2)N1	1.171%	2.41%	-22.96%
CC(=O)N1CCCC1c1cccc(Cc2ccc(F)cc2)n1 (configuration not stated)	-0.7049%	1.513%	9.502%
N#Cc1cccc(C(=O)N2C[C@H](CO)C[C@H](CN3CCCC3)C2)c1	0.4016%	3.495%	-15.61%
Cc1nc(COC[C@H]2CC[C@H]3NCC[C@H]3O2)cs1	-0.4845%	2.84%	-1.608%
Cc1cc(NC(=O)NCC(C)N2CCOCC2)n(C)n1 (configuration not stated)	-7.866%	-1.423%	-7.365%
O=C1[C@H]2CN(Cc3cccs3)C[C@H]2CN1c1ccsc1	0.8403%	2.404%	12.99%
O=c1ncn(-c2ccc(F)cc2)c2ncccc12	-0.8972%	2.812%	-12.41%
CNc1nc(CNC(=O)Nc2ccccc2SC)cs1	-2.201%	-0.5457%	0.1225%
O=C(CC1CC1)N[C@@H]1CN(Cc2ccoc2)C[C@@H]2CCCO[C@@H]21	0.6509%	-0.3339%	-17.65%
CO[C@H]1CN(CC2CCOCC2)[C@@H]2CCCO[C@H]12	-	3.303%	-1.42%
O=C(O)C(c1ccc2[nH]ccc2c1)N1CCOCC1 (configuration not stated)	1.413%	-2.406%	10.79%
CN(C)CCNc1cc(-c2ncccc2O)c2cc[nH]c2n1	7.685%	-3.013%	-0.08406%
O=C(Nc1ccccn1)C1=NN(c2ccccc2)C(=O)CN1	5.271%	0.8177%	17.15%
NC(=O)CCC1CCCN(c2ccc3c(Cl)ccnc3c2F)C1 (configuration not stated)	-0.6192%	3.578%	-4.256%
O=S(=O)(c1cccnc1)N1C[C@@H]2CC[C@H](C1)N(Cc1ccccn1)C2	-3.521%	5.749%	-9.594%
CN(CC(N)=O)Cc1csc(-c2ccc(F)cc2)n1	0.3137%	7.015%	-16.78%
N#Cc1ccc(CN2CCC(CCc3ccc(O)cc3)CC2)cc1	8.302%	-2.93%	14.98%
CC(C)c1ncncc1C(=O)N1CCN(Cc2cccnc2)CC1	-4.035%	0.3714%	-16.73%
O=C(CCc1ccco1)Nc1cc(C(F)(F)F)c[nH]c1=O	-7.13%	5.226%	-12.92%
CCOC(=O)CCCNC(=O)CN1CCN(c2ncccn2)CC1	-0.7457%	3.458%	11.97%
O=C(NCCNc1ccccn1)N1CCSCC1	-3.365%	1.999%	2.578%
CC(C)c1cc(N2CC[C@H](F)C2)n2nccc2n1	-1.215%	11.35%	-0.867%
CN(CC1CCCCO1)S(=O)(=O)c1cccc(C(=O)N2CCOCC2)c1 (configuration not stated)	-0.9709%	1.373%	-3.673%
Cc1nc(CN2CCOC(c3ccc(Cl)cc3)C2)oc1C (configuration not stated)	-2.016%	0.3534%	-18.21%
CCCOC1CCCN(c2ncnc3c2CCN(C(=O)C2CC2)C3)C1 (configuration not stated)	-1.232%	5.877%	-8.576%
CC(C)CC(=O)N1CC(=O)c2sc(NC3CCCCC3)nc2C1	-	2.325%	1.364%
Cc1ccnc(NC(=O)c2ccc(F)c(S(=O)(=O)NC3CC3)c2)c1	-26.69%	2.214%	1.885%
CC(C)(C)C1CC(=O)Nc2c1cnn2Cc1ccco1 (configuration not stated)	1.704%	3.954%	-5.434%
Cc1ccc(CN2CCN(c3ncccc3C(N)=O)CC2CCO)cc1 (configuration not stated)	1.712%	8.457%	-6.181%
COCCn1c(C(=O)NCC(C)C(=O)O)cc2ccccc21 (configuration not stated)	-1.83%	1.006%	-0.5322%
CC(O)CN1CCN(C(=O)c2ccc(Cn3cccn3)cc2)CC1 (configuration not stated)	2.113%	4.768%	14.43%
CN(C)CCN1CCCC12CCN(Cc1nccn1C)CC2	-	3.018%	-8.955%
Cn1cnnc1-c1cncc(NCc2cccc3c2OC(C)(C)C3)c1	-2.2%	2.276%	4.976%
Cc1ccc(C(=O)NC2CCCN(C)C2)c(=O)[nH]1 (configuration not stated)	0.1514%	2.418%	-5.607%
Cc1noc(CCCC(=O)NC(C)c2ccc(Cl)s2)n1 (configuration not stated)	-6.591%	3.208%	-33.54%
CCOCC(=O)Nc1nccn1Cc1ccccc1Cl	-4.235%	-2.505%	-2.785%
Cc1ccoc1C(=O)N1C[C@@H](OCC2CC2)[C@H]2OCCC[C@H]21	-0.2513%	3.05%	6.747%
CC(c1ccon1)N(C)C(=O)C1CCN(C(=O)C2CC2)CC1 (configuration not stated)	-0.000006%	0.5605%	-4.959%
COc1ccccc1OC1(C(=O)O)CCN(c2ccccn2)CC1	-0.1505%	1.666%	-11.41%
O=C(Nc1ccccc1)N1CCC(N2Cc3ncccc3C2=O)CC1	5.14%	3.863%	-5.746%
O=C1C(NCc2ccc3c(c2)CCO3)CCN1Cc1ccccc1 (configuration not stated)	-3.718%	-0.155%	-5.985%
CC1(c2ccccc2)CCC(=O)N(CCN2CCCOC2=O)C1 (configuration not stated)	-3.127%	3.324%	-4.326%
CN1CCC(N2CC[C@H](c3nc4ccc(C(F)(F)F)cc4[nH]3)C2)CC1	-6.852%	4.024%	-12.92%
CN(Cc1cccc(Cl)c1)C(=O)Cn1nc(-c2ccc(F)cc2)oc1=O	-4.665%	4.873%	-6.327%
CCc1nc(C2CCCN2CC(=O)NCCOc2ccccc2)no1 (configuration not stated)	15.6%	-1.601%	-22.23%
N#Cc1cccnc1N1CCC2(CCCN(C3CCOCC3)C2=O)C1 (configuration not stated)	4.194%	0.3316%	-41.41%
CNC(=O)C1CN(Cc2cc(C)on2)CCN(C(C)=O)C1 (configuration not stated)	-6.078%	0.2146%	-3.903%
Cc1ccc(C(=O)N2CCc3ncnc(-c4cnn(C)c4)c3CC2)cn1	1.724%	-1.968%	-12.57%
Cc1nc2c(c(C)c1CC(=O)NC(C)c1ccccc1)c(=O)[nH]n2C (configuration not stated)	-5.011%	3.366%	-7.181%
COc1ccccc1C(=O)Nc1c(F)c(C(=O)N2CCCC2)nn1C	-1.1%	-1.808%	-8.357%
COC(=O)c1cc2c(=O)n(C3CCCC3)ccc2nc1C	-0.7703%	8.728%	-14.76%

Repeated from the top, 7 entries:

{"compound": "Cc1nn2c(NC(=O)CSc3nccn3C)csc2nc1=O", "MtTrpRS": -4.355, "PfKRS1": -4.045, "ClpP1P2": -6.717}
{"compound": "CN(C)Cc1cc(C2CCCCN2S(=O)(=O)c2cccc(Cl)c2)nn1C", "stereo": "configuration not stated", "MtTrpRS": -2.108, "PfKRS1": 2.441, "ClpP1P2": -24.26}
{"compound": "Cc1nc(C2CCCN(C(=O)c3c[nH]c(C(C)C)n3)C2)no1", "stereo": "configuration not stated", "MtTrpRS": 20.9, "PfKRS1": 0.5062, "ClpP1P2": -26.76}
{"compound": "c1csc(-c2nc(CN3CCOC(Cn4cncn4)C3)co2)c1", "stereo": "configuration not stated", "MtTrpRS": -1.33, "PfKRS1": 5.515, "ClpP1P2": 17.33}
{"compound": "O=C(NS(=O)(=O)c1cc(Cl)ccc1Cl)c1cccc2c1OCCO2", "MtTrpRS": -1.285, "PfKRS1": 2.495, "ClpP1P2": -9.078}
{"compound": "Cc1ncsc1CCn1ccnc1-c1cc2n(n1)CCCNC2", "MtTrpRS": 9.071, "PfKRS1": -3.237, "ClpP1P2": 3.565}
{"compound": "CC(=O)N1CCc2nc(-c3ccccc3)nc(NC(C)C)c2CC1", "PfKRS1": 4.499, "ClpP1P2": -1}